Measurements reported in PubChem BioAssay AID493246 (Drosophila RNAi Screening Center, 2011).

- Purpose: 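Genes fly cells need to grow and stay alive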 (primary screen)
- System: Drosophila Kc and S2R+ cells
- Knock-down reagent: long dsRNA against Drosophila genes
- Detection: 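Raw, unnormalised count of remaining cells in each well; per-plate z-scores of cell number underlie the calls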
- Reading the numbers: Kc cell number and S2R+ cell number: higher = more cells remaining
- Call rule: 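Active when the per-plate z-score of cell number is 3 or more in the direction of fewer cells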
The deposit covers about 21,000 reagents; this is an unselected part of those with a known target gene and a result. Over the whole deposit, 429 (2%) were called active. 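Values are raw and not normalised between plates; calls rest on per-plate z-scores that were not deposited.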 Names joined by + are all predicted targets of the reagent. Not given: the amount of reagent, the time to read-out.

Hsc70-1 (Heat shock protein 70 cognate 1) [DRSC11185] gave Kc cell number, rep 1 = 1.93e6; Kc cell number, rep 2 = 1.82e6; S2R+ cell number, rep 1 = 1.12e6; S2R+ cell number, rep 2 = 1.23e6; inactive.
Against Dus2 (Dihydrouridine synthase 2) [DRSC19591] the deposit lists Kc cell number, rep 1 = 5.40e5; S2R+ cell number, rep 1 = 7.42e5; inactive.
Mcr (Macroglobulin complement-related) [DRSC03366] scored Kc cell number, rep 1 = 1.50e6; Kc cell number, rep 2 = 1.49e6; S2R+ cell number, rep 1 = 7.93e5; S2R+ cell number, rep 2 = 8.39e5; inactive.
For PGRP-LA (Peptidoglycan recognition protein LA) [DRSC10327] the deposit lists Kc cell number, rep 1 = 1.62e6; Kc cell number, rep 2 = 1.66e6; S2R+ cell number, rep 1 = 1.17e6; S2R+ cell number, rep 2 = 1.36e6; inactive.
PGRP-LA (Peptidoglycan recognition protein LA) [DRSC10414] scored Kc cell number, rep 1 = 1.64e6; Kc cell number, rep 2 = 1.65e6; S2R+ cell number, rep 1 = 1.12e6; S2R+ cell number, rep 2 = 1.35e6; inactive.
After knock-down of CG17770 + Acam [DRSC14110], the screen gave Kc cell number, rep 1 = 1.40e6; Kc cell number, rep 2 = 1.47e6; S2R+ cell number, rep 1 = 9.92e5; S2R+ cell number, rep 2 = 1.07e6; inactive.
Knock-down of CG17770 + Acam [DRSC15264] gave: Kc cell number, rep 1 = 1.47e6; Kc cell number, rep 2 = 1.46e6; S2R+ cell number, rep 1 = 9.00e5; S2R+ cell number, rep 2 = 1.00e6; inactive.
Knock-down of CG7251 [DRSC03039] came out at: Kc cell number, rep 1 = 1.35e6; Kc cell number, rep 2 = 1.42e6; S2R+ cell number, rep 1 = 5.98e5; S2R+ cell number, rep 2 = 9.44e5; inactive.
For Chpf (Chondroitin polymerizing factor) [DRSC19491], the entry reads Kc cell number, rep 1 = 1.63e6; Kc cell number, rep 2 = 1.57e6; S2R+ cell number, rep 1 = 1.12e6; S2R+ cell number, rep 2 = 1.17e6; inactive.
Knock-down of Chpf (Chondroitin polymerizing factor) [DRSC19893] resulted in: Kc cell number, rep 1 = 6.16e5; S2R+ cell number, rep 1 = 8.69e5; inactive.
For KCNQ (KCNQ potassium channel) [DRSC06121], the values are Kc cell number, rep 1 = 1.60e6; Kc cell number, rep 2 = 1.65e6; S2R+ cell number, rep 1 = 1.22e6; S2R+ cell number, rep 2 = 1.28e6; inactive.
With knock-down of KCNQ (KCNQ potassium channel) [DRSC06230] the results were Kc cell number, rep 1 = 1.52e6; Kc cell number, rep 2 = 1.68e6; S2R+ cell number, rep 1 = 1.25e6; S2R+ cell number, rep 2 = 1.32e6; inactive.
With knock-down of GstD7 (Glutathione S transferase D7) [DRSC16688], the record shows Kc cell number, rep 1 = 1.80e6; Kc cell number, rep 2 = 1.69e6; S2R+ cell number, rep 1 = 1.41e6; S2R+ cell number, rep 2 = 1.57e6; inactive.
Rpp14b (Ribonuclease P/MRP subunit p14 b) [DRSC15063] showed Kc cell number, rep 1 = 1.52e6; Kc cell number, rep 2 = 1.59e6; S2R+ cell number, rep 1 = 1.05e6; S2R+ cell number, rep 2 = 1.42e6; inactive.
Fa2h (Fatty acid 2-hydroxylase) [DRSC06608] showed Kc cell number, rep 1 = 1.53e6; Kc cell number, rep 2 = 1.56e6; S2R+ cell number, rep 1 = 1.28e6; S2R+ cell number, rep 2 = 1.48e6; inactive.
With knock-down of Fa2h (Fatty acid 2-hydroxylase) [DRSC06609], the screen gave Kc cell number, rep 1 = 1.53e6; Kc cell number, rep 2 = 1.61e6; S2R+ cell number, rep 1 = 1.20e6; S2R+ cell number, rep 2 = 1.35e6; inactive.
Depletion of CG33095 [DRSC14441] came out at: Kc cell number, rep 1 = 1.28e6; Kc cell number, rep 2 = 1.30e6; S2R+ cell number, rep 1 = 9.32e5; S2R+ cell number, rep 2 = 1.04e6; inactive.
Depletion of CG9399 [DRSC16488] resulted in: Kc cell number, rep 1 = 1.46e6; Kc cell number, rep 2 = 1.50e6; S2R+ cell number, rep 1 = 1.24e6; S2R+ cell number, rep 2 = 1.33e6; inactive.
CG4752 [DRSC04486] showed Kc cell number, rep 1 = 1.77e6; Kc cell number, rep 2 = 1.78e6; S2R+ cell number, rep 1 = 1.46e6; S2R+ cell number, rep 2 = 1.50e6; inactive.
Hsp110 (Heat shock protein 110) [DRSC11186] showed Kc cell number, rep 1 = 1.55e6; Kc cell number, rep 2 = 1.67e6; S2R+ cell number, rep 1 = 1.18e6; S2R+ cell number, rep 2 = 1.24e6; inactive.
Against CG13250 [DRSC11698], the values are Kc cell number, rep 1 = 1.30e6; Kc cell number, rep 2 = 1.54e6; S2R+ cell number, rep 1 = 1.27e6; S2R+ cell number, rep 2 = 1.29e6; inactive.

Part of the list above, reformatted.
Gene	dsRNA	Kc cell number, rep 1	Kc cell number, rep 2	S2R+ cell number, rep 1	S2R+ cell number, rep 2	Outcome
PGRP-LA (Peptidoglycan recognition protein LA)	DRSC10414	1.64e6	1.65e6	1.12e6	1.35e6	inactive
CG17770 + Acam	DRSC14110	1.40e6	1.47e6	9.92e5	1.07e6	inactive
CG17770 + Acam	DRSC15264	1.47e6	1.46e6	9.00e5	1.00e6	inactive
